Results reported in patent US20060147914A1 (Johns Hopkins, published 2006).
These are yes or no findings as the source states them, for the method shown. In cells and extracts the contact can be indirect. Some entries that bind do so weakly or less than the wild type.

Protein sequences, listed by entry. Tags and fused reporters are not part of them. Residues count along the entry.
UniProt Q9QX01: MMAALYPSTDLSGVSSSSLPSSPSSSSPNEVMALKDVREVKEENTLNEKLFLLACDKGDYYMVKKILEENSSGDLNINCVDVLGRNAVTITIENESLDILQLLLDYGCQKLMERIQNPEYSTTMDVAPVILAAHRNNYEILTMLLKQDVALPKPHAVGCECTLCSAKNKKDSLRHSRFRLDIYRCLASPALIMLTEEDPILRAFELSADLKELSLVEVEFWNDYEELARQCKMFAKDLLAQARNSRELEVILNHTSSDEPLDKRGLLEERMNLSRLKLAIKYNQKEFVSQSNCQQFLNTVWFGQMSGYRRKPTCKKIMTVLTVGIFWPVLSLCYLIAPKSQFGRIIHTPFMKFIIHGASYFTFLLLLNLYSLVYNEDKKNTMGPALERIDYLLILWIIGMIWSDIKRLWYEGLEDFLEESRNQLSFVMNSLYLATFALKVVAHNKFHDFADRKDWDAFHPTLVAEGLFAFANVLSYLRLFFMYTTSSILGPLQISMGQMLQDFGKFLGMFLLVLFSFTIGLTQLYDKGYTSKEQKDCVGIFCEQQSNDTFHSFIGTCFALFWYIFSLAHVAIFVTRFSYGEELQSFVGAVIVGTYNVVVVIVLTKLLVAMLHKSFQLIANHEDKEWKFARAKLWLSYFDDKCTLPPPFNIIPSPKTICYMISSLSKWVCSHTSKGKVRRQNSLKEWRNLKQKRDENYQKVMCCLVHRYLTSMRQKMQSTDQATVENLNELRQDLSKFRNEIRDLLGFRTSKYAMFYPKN
UniProt P23385, residues 19-1199: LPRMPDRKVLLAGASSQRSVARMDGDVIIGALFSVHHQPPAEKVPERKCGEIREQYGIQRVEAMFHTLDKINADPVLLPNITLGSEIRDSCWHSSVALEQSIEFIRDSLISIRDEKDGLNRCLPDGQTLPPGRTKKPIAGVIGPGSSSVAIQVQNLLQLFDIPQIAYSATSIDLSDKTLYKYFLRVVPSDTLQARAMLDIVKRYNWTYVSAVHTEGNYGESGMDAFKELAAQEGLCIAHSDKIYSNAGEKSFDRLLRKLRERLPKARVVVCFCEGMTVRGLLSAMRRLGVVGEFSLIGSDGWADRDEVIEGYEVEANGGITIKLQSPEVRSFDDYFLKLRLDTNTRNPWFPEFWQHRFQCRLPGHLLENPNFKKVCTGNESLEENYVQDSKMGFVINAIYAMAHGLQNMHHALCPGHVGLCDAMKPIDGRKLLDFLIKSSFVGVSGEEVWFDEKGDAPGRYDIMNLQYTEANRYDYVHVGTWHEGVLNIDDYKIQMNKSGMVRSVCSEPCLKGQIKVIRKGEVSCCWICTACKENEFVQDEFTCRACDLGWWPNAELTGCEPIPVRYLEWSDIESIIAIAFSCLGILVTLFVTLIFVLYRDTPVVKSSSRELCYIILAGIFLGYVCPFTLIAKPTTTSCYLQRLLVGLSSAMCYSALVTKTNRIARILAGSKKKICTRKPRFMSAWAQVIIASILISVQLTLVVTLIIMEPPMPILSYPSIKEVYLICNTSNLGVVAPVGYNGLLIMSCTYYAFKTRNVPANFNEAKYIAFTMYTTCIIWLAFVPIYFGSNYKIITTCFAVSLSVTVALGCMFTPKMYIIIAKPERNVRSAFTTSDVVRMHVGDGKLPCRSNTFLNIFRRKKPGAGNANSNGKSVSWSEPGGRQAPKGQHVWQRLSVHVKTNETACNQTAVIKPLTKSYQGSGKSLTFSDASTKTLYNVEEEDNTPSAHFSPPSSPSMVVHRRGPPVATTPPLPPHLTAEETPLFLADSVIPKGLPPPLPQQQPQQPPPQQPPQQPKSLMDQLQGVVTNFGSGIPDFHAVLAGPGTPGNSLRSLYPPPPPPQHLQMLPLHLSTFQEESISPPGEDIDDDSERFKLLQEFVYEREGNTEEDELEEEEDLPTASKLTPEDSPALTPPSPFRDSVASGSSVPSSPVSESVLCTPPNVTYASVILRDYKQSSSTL
UniProt P31424, residues 21-1203: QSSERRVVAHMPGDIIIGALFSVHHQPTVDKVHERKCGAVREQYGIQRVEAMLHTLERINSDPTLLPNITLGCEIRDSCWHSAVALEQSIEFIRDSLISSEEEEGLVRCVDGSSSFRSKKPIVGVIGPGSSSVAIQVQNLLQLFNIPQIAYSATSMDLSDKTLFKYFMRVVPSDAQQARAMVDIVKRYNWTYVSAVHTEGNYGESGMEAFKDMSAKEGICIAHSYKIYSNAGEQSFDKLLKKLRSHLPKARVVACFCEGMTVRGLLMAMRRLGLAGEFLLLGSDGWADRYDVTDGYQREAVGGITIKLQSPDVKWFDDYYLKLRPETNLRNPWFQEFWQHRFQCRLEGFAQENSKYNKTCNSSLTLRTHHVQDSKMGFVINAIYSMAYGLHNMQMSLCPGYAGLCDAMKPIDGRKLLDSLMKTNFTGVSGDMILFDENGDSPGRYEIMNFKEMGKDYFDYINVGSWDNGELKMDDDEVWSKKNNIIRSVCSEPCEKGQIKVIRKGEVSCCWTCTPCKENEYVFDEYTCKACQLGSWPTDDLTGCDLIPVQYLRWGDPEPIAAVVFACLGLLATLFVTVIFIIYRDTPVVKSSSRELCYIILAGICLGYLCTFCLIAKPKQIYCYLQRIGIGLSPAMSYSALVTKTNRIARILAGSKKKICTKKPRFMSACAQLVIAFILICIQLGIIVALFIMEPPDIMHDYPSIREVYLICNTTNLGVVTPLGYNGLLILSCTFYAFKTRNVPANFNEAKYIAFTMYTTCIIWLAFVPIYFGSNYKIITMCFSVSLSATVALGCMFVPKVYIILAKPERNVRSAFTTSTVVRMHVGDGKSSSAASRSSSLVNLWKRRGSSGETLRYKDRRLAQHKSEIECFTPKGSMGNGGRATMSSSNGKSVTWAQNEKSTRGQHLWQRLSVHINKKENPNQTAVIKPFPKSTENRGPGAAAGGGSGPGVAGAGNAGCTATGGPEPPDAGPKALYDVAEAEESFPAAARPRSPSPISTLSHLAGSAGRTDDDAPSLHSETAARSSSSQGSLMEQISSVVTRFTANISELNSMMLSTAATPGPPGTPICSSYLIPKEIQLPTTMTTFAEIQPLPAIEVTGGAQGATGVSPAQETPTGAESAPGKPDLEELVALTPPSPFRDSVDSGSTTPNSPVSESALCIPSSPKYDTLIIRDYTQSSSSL

Key:
[1] = target: native TrpC1 from adult rat brain lysates (rat) (UniProt Q9QX01); assay: co-immunoprecipitation from rat brain lysate
[2] = target: native TrpC1 from adult rat brain lysates (rat) (UniProt Q9QX01); assay: co-immunoprecipitation from rat brain
[3] = target: native mGluR1 from rat cerebellum (rat) (UniProt P23385); assay: co-precipitation from cerebellum of rats injected with 10 mg/kg FK-506 or vehicle
[4] = target: native mGluR1 from rat cerebellum (rat) (UniProt P23385); assay: co-precipitation from cerebellum of rats injected with FK-506
[5] = target: native TrpC1 from adult rat brain lysates (rat) (UniProt Q9QX01); assay: co-immunoprecipitation from rat cerebellum lysate
[6] = target: native mGluR5 in detergent extracts of rat hippocampus (rat) (UniProt P31424); assay: co-immunoprecipitation from rat hippocampus extract

B1: native Homer 1 from adult rat forebrain / hippocampus (protein, UniProt Q9Z214 2-366, looked up)
chain: GEQPIFSTRAHVFQIDPNTKKNWVPTSKHAVTVSYFYDSTRNVYRIISLDGSKAIINSTITPNMTFTKTSQKFGQWADSRANTVYGLGFSSEHHLSKFAEKFQEFKEAARLAKEKSQEKMELTSTPSQESAGGDLQSPLTPESINGTDDERTPDVTQNSEPRAEPAQNALPFSHSAGDRTQGLSHASSAISKHWEAELATLKGNNAKLTAALLESTANVKQWKQQLAAYQEEAERLHKRVTELECVSSQANAVHSHKTELSQTVQELEETLKVKEEEIERLKQEIDNARELQEQRDSLTQKLQEVEIRNKDLEGQLSELEQRLEKSQSEQDAFRSNLKTLLEILDGKIFELTELRDNLAKLLECS
binding [1]: binds | binding [2]: binds

B2: native Homer 3 from adult rat cerebellum (protein, UniProt Q9Z2X5 1-358, looked up)
chain: MSTAREQPIFSTRAHVFQIDPATKRNWIPAGKHALTVSYFYDATRNVYRIISIGGAKAIINSTVTPNMTFTKTSQKFGQWADSRANTVYGLGFGSEQQLTQFAEKFQEVKEAARLAREKSQDGGELTSTALAMASHQVPPSPLVSTNGPEEKLFRSQSADAPGPTERERLKKMLSEGSVGEVQWEAEFFALQDSNQRLAGALREANAAATQWRQQLEVQRAEAEHLRQRVAELEAQVAAEPVRAGEKEATSQSVEQLEARVQTKDQEIQTLKNQSTGPREAPDTAEREETQQQVQDLETRNAELEQQLRAMESNLEEARAERERARAEVGRAAQLLDVRLFELSELREGLARLAEAAP
binding [3]: binds | binding [2]: binds | binding [4]: binds | binding [5]: binds

B3: native Homer from rat hippocampus (protein)
chain: GEQPIFSTRAHVFQIDPNTKKNWVPTSKHAVTVSYFYDSTRNVYRIISLDGSKAIINSTITPNMTFTKTSQKFGQWADSRANTVYGLGFSSEHHLSKFAEKFQEFKEAARLAKEKSQEKMELTSTPSQESAGGDLQSPLTPESINGTDDERTPDVTQNSEPRAEPAQNALPFSHRYTFNSAIMIK
binding [6]: binds
